Experimental data: PubChem BioAssay AID504467 (National Center for Advancing Translational Sciences (NCATS), 2011)
The whole screen tested about 330,000 compounds, of which about 7,700 (2.3%) were called active. Inconclusive results, whose numbers are uncertain, are shown with a selection of clear calls. Calls follow the shape of the dose curve; as a rule, active = well fitted inhibition curve with a large enough effect; inconclusive = small, poorly fitted or top-dose-only effect, or effect the other way; inactive = flat fitted curve, though single readings scatter. Potencies of inconclusive entries are doubtful fits and often do not repeat.

Experiment: qHTS screen for small molecules that inhibit ELG1-dependent DNA repair in human embryonic kidney (HEK293T) cells expressing luciferase-tagged ELG1; also: nearly all actives have a fitted effect of over 55% in size
Conditions: HEK293T ELG1-luciferase reporter, luminescence, 16 h, DNA damage induced by 5-fluorouridine; activity change, negative = inhibition: at 46.1 µM (top of the series)
Outline: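 In this reporter screen, reduction of luminescence relative to DMSO vehicle indicated activity. Compounds and 5-fluorouridine were added together to 2,000 cells per well, incubated for 16 hr at 37 °C, then developed with ONE-Glo.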
% is scaled to controls: 0 for no effect and ±100 for the full control effect; potency is read from the fitted curve at half-maximal effect.

| Structure (SMILES) | Potency | activity change, negative = inhibition |
| --- | --- | --- |
| COC(=O)c1cc(N2CCNCC2)nc2ccccc12 | inconclusive: 20.6 µM [activator, partial curve, poor fit] | – |
| CNC(=O)NC(=S)NC(=O)c1ccc(OC)cc1 | inconclusive: 23.1 µM [activator, single point] | – |
| Cc1cccc(NC(=O)COc2nsnc2N2CCOCC2)c1 | – | inactive: 26.5% |
| COc1ccc(N(CC(=O)NCCSCc2ccc(Cl)cc2)S(C)(=O)=O)cc1Cl | inconclusive: 18.3 µM [inhibitor, single point] | – |
| O=C(COC(=O)c1ccccc1F)Nc1ccc2c(c1)OCCO2 | – | inactive: 17.6% |
| CC(C)OCCCn1c(=S)[nH]c2ncccc2c1=O | – | inactive: -0.428% |
| N#Cc1cnc(N)c(Br)c1 | inconclusive: 16.4 µM [inhibitor, partial curve, poor fit] | – |
| O=C(NCc1ccco1)c1cccc2c1C(=O)c1ccc(N3CCCC3)cc1S2(=O)=O | active: 13 µM | – |
| CC(CNC(=S)Nc1cc(F)cc(F)c1)CSc1ccc(Cl)cc1 (stereo unspecified) | – | inactive: 10.8% |
| COc1cccc(NC(=O)c2cnc(SC)nc2)c1 | – | inactive: 9.22% |
| Cc1ccccc1CN(C)Cc1cc(=O)oc2c(C)c(C)ccc12 | – | inactive: 24.1% |
| Cc1ccc(CC2CC(=O)N(C(Cc3ccccc3)C(=O)O)C2=O)cc1 (stereo unspecified) | – | inactive: -3.99% |
| CCOc1ccccc1NC(=O)C(NCCc1ccc(OC)cc1)c1ccccc1 (stereo unspecified) | inconclusive: 29.1 µM [activator, single point] | – |
| CCn1c(C(=O)N2CCC(C(=O)N3CCN(c4ccccn4)CC3)CC2)cc2sccc21 | active: 13 µM | – |
| Cc1ccc(NC(=O)NNC(=O)c2snnc2C)cc1 | inconclusive: 23.1 µM [activator, partial curve] | – |
| O=C(COc1ccc2ccc(=O)oc2c1)Nc1ccc(N2CCCCC2)cc1 | – | inactive: 2.69% |
| CSc1nnc2c(n1)OC(C)=Nc1ccccc1-2 | – | inactive: 2.56% |
| COC(=O)N/N=C/c1ccc([N+](=O)[O-])o1 | inconclusive: 20.6 µM [inhibitor, single point] | – |
| Cc1ccc2nc(-c3ccc4c(c3)OCCO4)cc(C(=O)O)c2c1 | inconclusive: 23.1 µM [activator, single point] | – |
| Nc1nonc1C(=O)NCCNCc1ccccc1 | – | inactive: -13.9% |
| O=C(CCl)NC(Cc1ccccc1)c1ccccc1 (stereo unspecified) | inconclusive: 8.2 µM [inhibitor, partial curve] | – |
| COc1ccc(Cn2nnnc2CN2CCc3ccccc32)cc1 | – | inactive: 10.5% |
| O=C(NCCCCc1ccccc1)C1CCCC1 | – | inactive: 12.3% |
| CCc1nn(CCCC(=O)NCc2cc(Br)ccc2OC)c(=O)c2cc3occc3n12 | inconclusive: 16.4 µM [inhibitor, single point] | – |
| CCCCCN(C(=O)CCC(=O)OCc1ccccc1C(F)(F)F)c1c(N)n(CCCC)c(=O)[nH]c1=O | – | inactive: -26.4% |
| O=C1/C(=C/c2ccc([N+](=O)[O-])cc2)CCC1C1CCCC1 (stereo unspecified) | inconclusive: 18.3 µM [activator, single point] | – |

| Structure (SMILES) | Potency | activity change, negative = inhibition |
| --- | --- | --- |
| CS/C(N)=N/N=C/c1c(O)ccc2ccccc12 | inconclusive: 16.4 µM [activator, partial curve] | – |
| O=C1N/C(=N\S(=O)(=O)Cc2ccccc2)S/C1=C/c1cccc([N+](=O)[O-])c1 | – | inactive: 14.8% |
| O=C(Cc1ccc(Cl)cc1Cl)Nc1ccncc1Cl | inconclusive: 1.83 µM [inhibitor, partial curve, poor fit] | – |
| COC(=O)c1ccc(C(=O)N(Cc2ccccc2)c2ccccc2)cc1 | – | inactive: 6.43% |
| CC(NC(N)=O)C(=O)OCC(=O)c1ccc(-c2ccccc2)cc1 (stereo unspecified) | inconclusive: 23.1 µM [activator, single point] | – |
| CSc1ccc(NC(=O)NCCCN2CCC(Cc3ccccc3)CC2)cc1 | – | inactive: -0.27% |
| Cc1ccc(C(=O)NNC(=O)Cn2nnc3ccccc32)cc1 | inconclusive: 29.1 µM [activator, single point] | – |
| Cc1nc(N2CCc3ccccc3C2)[nH]c(=O)c1Cc1ccccc1 | – | inactive: -2.32% |
| COc1cc(/C=N/NC(=O)NC23CC4CC(CC(C4)C2)C3)ccc1OCC(N)=O | inconclusive: 10.3 µM [inhibitor, partial curve] | – |
| COC(=O)Nc1ccc(S(=O)(=O)N2CCC(C(=O)NCc3ccc4c(c3)OCO4)CC2)cc1 | inconclusive: 23.1 µM [inhibitor, single point] | – |
| CCSc1nnc(NC(=O)c2cc(-c3ccc(C)c(C)c3O)n[nH]2)s1 | inconclusive: 29.1 µM [activator, partial curve, poor fit] | – |
| CCCc1nc(SCc2cccnc2)c2c(=O)n(C)c(=O)n(C)c2n1 | active: 16.4 µM | – |
| CCOc1ccc(S(=O)(=O)N2CCC(C(=O)NC3CCCC3)CC2)cc1 | – | inactive: -1.51% |
| COc1cccc(C2CC3(CC(C)(C)NC(=S)N3)Oc3cc(O)ccc32)c1 (stereo unspecified) | inconclusive: 25.9 µM [inhibitor, partial curve, poor fit] | – |
| Cc1ccc(Cn2ccc(NC(=O)c3cc(-c4ccc(Cl)cc4)on3)n2)cc1 | – | inactive: 7.4% |
| c1ccc(OCCOc2ncnc3ccccc23)cc1 | inconclusive: 11.2 µM [activator, partial curve] | – |
| CC(=O)c1ccc(OC(=O)COc2ccccc2)cc1 | – | inactive: 3.98% |
| Cc1cc(C(=O)N2CC(C)CC(C)C2)n(-c2ccccc2)n1 (stereo unspecified) | inconclusive: 29.1 µM [inhibitor, single point] | – |
| CCOC(=O)c1sc2nc(C)c3c(c2c1N)CC(C)(C)OC3 | – | inactive: -12.4% |
| S=c1nccc(-c2ccc(Cl)cc2)[nH]1 | inconclusive: 13 µM [activator, partial curve, poor fit] | – |
| CCOc1ccc(OCc2ccc(C(=O)N/N=C(\C)c3ccccn3)cc2)cc1 | inconclusive: 6.51 µM [activator, full curve] | – |
| Cc1ccc(Cn2c(SCC(C)C)nc3c2c(=O)n(C)c(=O)n3C)cc1 | inconclusive: 29.1 µM [inhibitor, single point] | – |
| COc1ccccc1N1CCN(C2CCCN(C(=O)c3csc(C)n3)C2)CC1 (stereo unspecified) | – | inactive: -3.7% |
| Cc1ccccc1C(=O)NCC(=O)OC(C)C(=O)Nc1cccc(S(=O)(=O)N2CCOCC2)c1 (stereo unspecified) | – | inactive: 1.43% |
| Clc1cccc(Cl)c1/C=C/c1nc2ccccc2[nH]1 | inconclusive: 2.59 µM [activator, partial curve] | – |
| CCCOC(=O)c1cc2ccccc2oc1=O | inconclusive: 23.1 µM [activator, single point] | – |

| Structure (SMILES) | Potency | activity change, negative = inhibition |
| --- | --- | --- |
| C[C@H](CO)N1C[C@H](C)[C@@H](CN(C)S(=O)(=O)c2ccc(F)cc2)Oc2c(NC(=O)Cc3ccccc3)cccc2C1=O | inconclusive: 29.1 µM [activator, partial curve, poor fit] | – |
| COc1ccc(CCNC(=O)[C@@H](NC(=O)N2CC(=O)Nc3ccccc32)C(C)C)cc1OC | – | inactive: -14.2% |
| Cc1nc(-c2ccc(S(=O)(=O)N3CCN(Cc4ccccc4)CC3)s2)cs1 | inconclusive: 29.1 µM [inhibitor, single point] | – |
| Cc1ncc(CO)c(CNc2ccc(-c3nc4ccccc4[nH]3)cc2)c1O | inconclusive: 8.2 µM [activator, partial curve] | – |
| COc1ccccc1CNC(=O)/C(C#N)=C/c1ccc(OC)c(OC)c1OC | – | inactive: -8.02% |
| O=c1/c(=C/c2ccccn2)sc2nc3ccccc3n12 | inconclusive: 1.46 µM [activator, full curve] | – |
| CCCCn1c(N2CCC(Cc3ccccc3)CC2)nc2c1c(=O)[nH]c(=O)n2C | inconclusive: 20.6 µM [inhibitor, single point] | – |
| O=C(COc1ccc(Cl)cc1)N(Cc1ccc(F)cc1)C1CCS(=O)(=O)C1 (stereo unspecified) | – | inactive: 0% |
| S=c1[nH]nc(-c2ccccc2)o1 | – | inactive: 14.2% |
| Cc1cc(C)cc(NC(=O)CSc2nc3ccccc3nc2N2CCCC2)c1 | inconclusive: 29.1 µM [inhibitor, single point] | – |
| CCCc1nc(SCC(=O)N2CCC(Cc3ccccc3)CC2)c2c(=O)n(C)c(=O)n(C)c2n1 | inconclusive: 25.9 µM [inhibitor, single point] | – |
| O=C(Nc1ncn[nH]1)c1ccc(Cl)c(Cl)c1 | – | inactive: 10.6% |
| CN(C)C(=O)c1ccc(-n2cnc3ccccc3c2=O)cc1 | inconclusive: 29.1 µM [activator, single point] | – |
| COc1cc(C)ccc1OCc1cc(C(=O)NCc2ccncc2)no1 | inconclusive: 11.6 µM [activator, partial curve] | – |
| O=C(NCCCO)c1cc2c(cn1)[nH]c1ccccc12 | inconclusive: 14.6 µM [activator, partial curve] | – |
| CC(=O)Nc1ccc(NC(=O)COC(=O)c2c(-c3ccccc3)noc2C)cc1 | inconclusive: 20.6 µM [inhibitor, single point] | – |
| Cc1ccc(C(=O)Nc2nnc(S(=O)(=O)N3CCC(C)CC3)s2)cc1 | inconclusive: 18.3 µM [activator, single point] | – |
| CCOC(=O)Cc1csc(NC(=O)c2ccc(Cl)nc2)n1 | – | inactive: -15.9% |
| C=C(C)CN(CC)C(=O)CC1C(=O)NCCN1C (stereo unspecified) | – | inactive: 19.1% |
| CCOC(=O)C1CCCN(C(=O)CN2CCN(Cc3ccc(Cl)cc3)C2=O)C1 (stereo unspecified) | inconclusive: 32.6 µM [inhibitor, single point] | – |
| Cc1cc(=O)n(C)c(=O)n1CCCNc1ccccc1 | inconclusive: 29.1 µM [inhibitor, single point] | – |
| CCSc1cc(N2CC(C)OC(C)C2)nc(-c2ccccc2Cl)n1 (stereo unspecified) | inconclusive: 23.1 µM [inhibitor, single point] | – |
| O=C(CN1C(=O)NC2(CCc3ccccc32)C1=O)c1ccc(Br)cc1 (stereo unspecified) | – | inactive: -8.97% |
| COc1ccc(-c2cc(C(=O)c3c(N)n(C)c(=O)n(C)c3=O)c3ccccc3n2)cc1 | inconclusive: 6.51 µM [activator, partial curve] | – |
